According to paper PMC7113292:
Changes are numbered by the printed parent chain. In names and notes the source's numbering stands. Results are given in words; binding and its absence hold for the method and conditions named. For some assays here: In cells and extracts the contact can be indirect. Some entries that bind do so weakly or less than the wild type. For some assays here: Sequences can lack the tags named with a protein. Blank lines part the entries; values can stand above or below the molecule they belong to.

Chains of the proteins cited; added tags and fusions are not shown. Lines headed by an entry give the natural chain unless they say otherwise; changes in a name come on top. Residues count along the entry.
UniProt P01106: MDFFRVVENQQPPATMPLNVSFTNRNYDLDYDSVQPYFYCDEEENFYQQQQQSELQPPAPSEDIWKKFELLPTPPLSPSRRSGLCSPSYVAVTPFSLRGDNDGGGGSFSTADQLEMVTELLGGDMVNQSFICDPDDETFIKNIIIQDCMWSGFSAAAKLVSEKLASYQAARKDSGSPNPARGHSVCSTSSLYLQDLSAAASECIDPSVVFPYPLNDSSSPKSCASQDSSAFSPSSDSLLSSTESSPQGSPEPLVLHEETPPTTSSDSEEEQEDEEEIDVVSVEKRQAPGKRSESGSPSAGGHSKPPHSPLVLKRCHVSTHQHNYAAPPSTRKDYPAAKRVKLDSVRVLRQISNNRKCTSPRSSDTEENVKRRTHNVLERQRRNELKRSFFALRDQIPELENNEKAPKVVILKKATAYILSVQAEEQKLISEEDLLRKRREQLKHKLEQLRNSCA
Flag-c-Myc: residues 16-454 of P01106
Flag-c-Myc ΔC (1-355): residues 16-370 of P01106
Flag-c-Myc ΔN (144-439): residues 159-454 of P01106
UniProt P61244: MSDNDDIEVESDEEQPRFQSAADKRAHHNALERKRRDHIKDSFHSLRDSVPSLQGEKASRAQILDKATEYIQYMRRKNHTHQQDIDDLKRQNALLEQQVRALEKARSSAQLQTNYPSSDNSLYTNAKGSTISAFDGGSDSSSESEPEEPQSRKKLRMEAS
UniProt Q09472: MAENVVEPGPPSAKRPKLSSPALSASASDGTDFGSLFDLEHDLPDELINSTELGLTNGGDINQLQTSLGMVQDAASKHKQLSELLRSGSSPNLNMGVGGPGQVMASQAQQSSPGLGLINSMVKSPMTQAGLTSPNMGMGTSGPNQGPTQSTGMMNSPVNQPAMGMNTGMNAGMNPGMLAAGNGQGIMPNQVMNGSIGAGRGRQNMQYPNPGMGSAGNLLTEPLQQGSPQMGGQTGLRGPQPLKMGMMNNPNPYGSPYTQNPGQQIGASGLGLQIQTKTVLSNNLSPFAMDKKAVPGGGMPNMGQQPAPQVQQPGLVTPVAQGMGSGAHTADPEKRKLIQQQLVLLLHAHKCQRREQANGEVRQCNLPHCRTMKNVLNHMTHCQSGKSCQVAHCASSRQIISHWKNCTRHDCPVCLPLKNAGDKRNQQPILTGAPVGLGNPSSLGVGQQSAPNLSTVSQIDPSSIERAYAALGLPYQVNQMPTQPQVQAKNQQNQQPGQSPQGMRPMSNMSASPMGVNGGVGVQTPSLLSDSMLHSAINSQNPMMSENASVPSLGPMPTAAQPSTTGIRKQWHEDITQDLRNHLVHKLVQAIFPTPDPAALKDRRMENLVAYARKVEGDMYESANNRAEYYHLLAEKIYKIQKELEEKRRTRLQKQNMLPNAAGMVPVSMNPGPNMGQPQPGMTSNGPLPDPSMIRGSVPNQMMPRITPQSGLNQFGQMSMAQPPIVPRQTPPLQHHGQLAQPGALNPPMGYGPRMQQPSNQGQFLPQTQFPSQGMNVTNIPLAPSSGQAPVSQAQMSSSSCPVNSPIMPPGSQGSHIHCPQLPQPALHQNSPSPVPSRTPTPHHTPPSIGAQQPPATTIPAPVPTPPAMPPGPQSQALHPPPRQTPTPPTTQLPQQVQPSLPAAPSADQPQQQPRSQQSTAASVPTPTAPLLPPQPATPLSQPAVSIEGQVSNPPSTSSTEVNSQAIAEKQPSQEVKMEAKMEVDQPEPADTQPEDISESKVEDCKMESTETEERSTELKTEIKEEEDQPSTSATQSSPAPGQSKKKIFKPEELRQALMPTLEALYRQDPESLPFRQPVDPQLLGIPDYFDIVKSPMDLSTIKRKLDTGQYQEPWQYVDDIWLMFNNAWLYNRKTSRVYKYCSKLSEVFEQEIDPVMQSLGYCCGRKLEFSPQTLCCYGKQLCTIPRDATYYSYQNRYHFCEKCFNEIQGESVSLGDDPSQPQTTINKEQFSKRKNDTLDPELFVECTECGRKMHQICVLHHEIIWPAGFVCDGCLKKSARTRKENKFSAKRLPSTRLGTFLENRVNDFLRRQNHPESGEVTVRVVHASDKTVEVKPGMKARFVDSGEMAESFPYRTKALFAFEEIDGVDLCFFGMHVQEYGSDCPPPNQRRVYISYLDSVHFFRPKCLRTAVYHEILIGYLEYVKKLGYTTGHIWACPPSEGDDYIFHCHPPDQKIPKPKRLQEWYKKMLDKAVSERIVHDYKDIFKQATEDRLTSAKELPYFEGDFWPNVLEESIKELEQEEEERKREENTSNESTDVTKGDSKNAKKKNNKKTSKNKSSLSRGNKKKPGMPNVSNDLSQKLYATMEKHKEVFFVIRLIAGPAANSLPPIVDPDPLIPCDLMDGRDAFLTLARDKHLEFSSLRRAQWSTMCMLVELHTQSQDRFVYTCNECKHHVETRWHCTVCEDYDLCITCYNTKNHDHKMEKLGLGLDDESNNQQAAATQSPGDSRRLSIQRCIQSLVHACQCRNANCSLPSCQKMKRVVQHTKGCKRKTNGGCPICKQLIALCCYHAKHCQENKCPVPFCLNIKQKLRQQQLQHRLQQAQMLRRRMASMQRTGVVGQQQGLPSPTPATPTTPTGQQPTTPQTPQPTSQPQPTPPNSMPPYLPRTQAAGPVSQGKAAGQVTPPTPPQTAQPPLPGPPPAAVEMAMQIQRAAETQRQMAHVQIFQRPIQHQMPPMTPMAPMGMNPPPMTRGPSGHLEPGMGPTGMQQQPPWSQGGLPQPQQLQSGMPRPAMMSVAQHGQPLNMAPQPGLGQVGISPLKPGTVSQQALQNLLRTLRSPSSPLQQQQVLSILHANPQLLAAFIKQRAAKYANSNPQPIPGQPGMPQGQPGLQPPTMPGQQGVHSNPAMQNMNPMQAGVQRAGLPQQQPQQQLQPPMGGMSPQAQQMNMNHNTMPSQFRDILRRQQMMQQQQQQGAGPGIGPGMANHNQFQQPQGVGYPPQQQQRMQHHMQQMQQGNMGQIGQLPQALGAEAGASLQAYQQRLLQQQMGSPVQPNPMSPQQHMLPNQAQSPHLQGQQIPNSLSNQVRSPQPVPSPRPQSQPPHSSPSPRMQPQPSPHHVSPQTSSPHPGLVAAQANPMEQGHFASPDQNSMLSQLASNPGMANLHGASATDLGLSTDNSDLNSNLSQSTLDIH

Assays:
Flag-c-Myc = Flag-c-Myc (UniProt P01106); assay: co-IP; tagged proteins coexpressed in 293T cells; lysates immunoprecipitated with anti-Flag M2 beads; western blot for the tags
Flag-JMJD1A K918R = target: T1, Flag-JMJD1A K918R (UniProt Q9Y4C1); assay: as above
T1 sequence: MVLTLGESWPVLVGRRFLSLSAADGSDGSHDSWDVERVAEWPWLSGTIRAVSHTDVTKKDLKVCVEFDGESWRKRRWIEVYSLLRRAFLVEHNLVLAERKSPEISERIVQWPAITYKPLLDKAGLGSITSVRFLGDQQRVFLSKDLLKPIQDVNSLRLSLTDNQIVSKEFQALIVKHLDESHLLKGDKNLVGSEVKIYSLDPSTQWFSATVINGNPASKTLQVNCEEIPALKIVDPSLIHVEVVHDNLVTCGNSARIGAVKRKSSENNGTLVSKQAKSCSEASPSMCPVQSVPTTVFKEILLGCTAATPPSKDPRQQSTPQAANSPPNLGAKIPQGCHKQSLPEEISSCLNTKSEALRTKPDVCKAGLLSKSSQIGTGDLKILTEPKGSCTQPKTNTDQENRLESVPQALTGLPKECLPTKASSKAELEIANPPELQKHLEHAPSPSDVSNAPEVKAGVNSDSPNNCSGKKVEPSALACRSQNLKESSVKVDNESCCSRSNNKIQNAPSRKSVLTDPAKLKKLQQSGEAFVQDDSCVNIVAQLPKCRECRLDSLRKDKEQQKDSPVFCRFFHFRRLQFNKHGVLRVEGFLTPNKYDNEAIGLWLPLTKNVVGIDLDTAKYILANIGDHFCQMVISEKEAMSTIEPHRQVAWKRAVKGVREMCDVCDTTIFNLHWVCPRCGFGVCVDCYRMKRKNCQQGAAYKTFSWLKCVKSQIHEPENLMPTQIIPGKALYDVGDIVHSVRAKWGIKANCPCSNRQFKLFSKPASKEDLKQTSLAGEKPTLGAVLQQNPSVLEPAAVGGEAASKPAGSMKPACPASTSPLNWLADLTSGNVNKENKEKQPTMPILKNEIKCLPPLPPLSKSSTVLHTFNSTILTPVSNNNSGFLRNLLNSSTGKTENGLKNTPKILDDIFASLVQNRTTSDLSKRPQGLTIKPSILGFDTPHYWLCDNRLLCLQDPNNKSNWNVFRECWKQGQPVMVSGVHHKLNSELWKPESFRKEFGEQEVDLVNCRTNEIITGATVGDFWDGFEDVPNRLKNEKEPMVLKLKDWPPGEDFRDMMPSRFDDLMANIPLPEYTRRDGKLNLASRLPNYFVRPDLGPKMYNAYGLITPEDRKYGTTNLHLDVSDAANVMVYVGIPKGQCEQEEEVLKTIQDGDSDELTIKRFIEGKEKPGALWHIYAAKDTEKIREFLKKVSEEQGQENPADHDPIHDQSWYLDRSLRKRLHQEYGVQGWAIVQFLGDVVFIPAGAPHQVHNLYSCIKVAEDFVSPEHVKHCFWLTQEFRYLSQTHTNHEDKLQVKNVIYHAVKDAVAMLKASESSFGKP

Flag-JMJD1A (WT) = target: T2, Flag-JMJD1A (WT) (UniProt Q9Y4C1); assay: as above
T2 sequence: T1 sequence with R918K

[1] = target: c-Myc (endogenous, Rv1 cells) (human (endogenous in Rv1)) (UniProt P01106); assay: co-IP; endogenous proteins immunoprecipitated from Rv1 cells with JMJD1A or c-Myc antibodies, western blot for the other
GST-c-Myc = GST-c-Myc (UniProt P01106); assay: pull-down; GST or GST-c-Myc bound on glutathione agarose incubated with recombinant Flag-JMJD1A; western blot with GST or Flag antibodies; both purified
Flag-c-Myc ΔN (144-439) = Flag-c-Myc ΔN (144-439) (UniProt P01106); assay: co-IP; tagged proteins coexpressed in 293T cells; lysates immunoprecipitated with anti-Flag M2 beads; western blot for the tags
Flag-Max = Flag-Max (UniProt P61244); assay: as above
Flag-c-Myc ΔC (1-355) = Flag-c-Myc ΔC (1-355) (UniProt P01106); assay: as above

binding (Flag-c-Myc): binds
Molecule: myc-p300 (from UniProt Q09472 1-2414) (enzyme)

binding [1]: binds
B1: JMJD1A (endogenous, Rv1 cells) (protein, UniProt Q9Y4C1 1-1321)
chain: T1 sequence with R918K

binding (GST-c-Myc): binds
B2: recombinant Flag-JMJD1A (protein, UniProt Q9Y4C1 1-1321)
chain: T1 sequence with R918K

binding (Flag-c-Myc ΔN (144-439)): no binding
binding (Flag-c-Myc): binds
binding (Flag-Max): no binding
binding (Flag-c-Myc ΔC (1-355)): binds
B5: myc-JMJD1A (protein, UniProt Q9Y4C1 1-1321)
chain: T1 sequence with R918K

The next lines start with the molecule.

Molecule: GFP-HUWE1 (from UniProt Q7Z6Z7 1-4374) (enzyme)
binding (Flag-JMJD1A K918R): binds
binding (Flag-JMJD1A (WT)): binds

B3: HA-JMJD1A K918R (protein, UniProt Q9Y4C1 1-1321)
chain: T1 sequence
binding (Flag-c-Myc): binds

B4: HA-JMJD1A (WT) (protein, UniProt Q9Y4C1 1-1321)
chain: T1 sequence with R918K
binding (Flag-c-Myc): binds
